{
  "source": "PubChem BioAssay AID270",
  "about": "(DTP/NCI, 2004)",
  "system": "BDF1 mice, s.c. Lewis lung carcinoma, T/C %",
  "assay": "NCI In Vivo Anticancer Drug Screen. Data for tumor model Lewis Lung Carcinoma (subcutaneous) in B6D2F1 (BDF1) mice",
  "method_in_brief": "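First, mice carry a transplantable tumor. Next, groups receive either compound or vehicle. Finally, survival or tumor dimensions in the dosed animals are divided by the corresponding control figure.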",
  "key": {"[1]": {"details": "T/C endpoint: median survival time, dose: 15.0 mg/kg/injection, schedule: Q01DX009 (ip), vehicle: Klucel (hydroxypropylcellulose) (HPC), higher T/C = longer survival"}},
  "note": "The list is a part of this screen's results and no random one: it gathers tests that were run many times, whatever their T/C, doses with no T/C, and many T/C values between a quarter and a half above the control. Other doses and runs of a compound stand elsewhere. T/C is the treated group as % of the vehicle group. Schedules are NCI's codes, read here as Q, the interval in days (D) or hours (H), X, the number of doses. Some doses have a count of surviving animals in place of a T/C: the source files T/C as zero there, which appears to mark a toxic dose or a test without result, not a measured value. Some survivor counts are full or nearly so, which does not show that the dose was tolerated: the source hardly ever lists a survival T/C far under the control, and the zero likely stands for such cases as well. Survivors were counted at the toxicity check, usually on the fifth day, unless a day is given; later deaths do not show. Some entries hold several experiments; their values stand side by side, smallest first. Brackets with × give the number of equal values in this list. Where survival is the endpoint, the PubChem record calls one and a half times the control and up active, and a quarter to a half above the control has no call in these data; cut-offs in other NCI protocols can differ.",
  "data": [
    {"smiles": "N#CCC(=O)O", "values": [
      {"measurement": "T/C", "setting": "T/C endpoint: mean tumor weight, dose: 19.0 mg/kg/injection, schedule: Q01DX011 (ip), vehicle: saline, evaluated on day 12, higher T/C = larger tumour", "value": "129 % of control"},
      {"measurement": "survivor count", "setting": "T/C endpoint: mean tumor weight, dose: 100.0 mg/kg/injection, schedule: Q01DX011 (ip), vehicle: other, higher T/C = larger tumour", "value": "0 of 6"},
      {"measurement": "survivor count", "setting": "T/C endpoint: mean tumor weight, dose: 150.0 mg/kg/injection, schedule: Q01DX011 (ip), vehicle: other, higher T/C = larger tumour", "value": "0 of 6"},
      {"measurement": "survivor count", "setting": "T/C endpoint: mean tumor weight, dose: 225.0 mg/kg/injection, schedule: Q01DX011 (ip), vehicle: other, higher T/C = larger tumour", "value": "0 of 6"}
    ]},
    {"smiles": "O=[N+]([O-])c1ccc(/C=N\\Nc2ccc([N+](=O)[O-])cn2)cc1", "values": [
      {"measurement": "survivor count", "setting": "T/C endpoint: median survival time, dose: 50.0 mg/kg/injection, schedule: Q01DX009 (ip), vehicle: Klucel (hydroxypropylcellulose) (HPC), higher T/C = longer survival", "value": "9 of 10 and 10 of 10"},
      {"measurement": "survivor count", "setting": "T/C endpoint: median survival time, dose: 100.0 mg/kg/injection, schedule: Q01DX009 (ip), vehicle: Klucel (hydroxypropylcellulose) (HPC), higher T/C = longer survival", "value": "9 of 10"},
      {"measurement": "survivor count", "setting": "T/C endpoint: median survival time, dose: 200.0 mg/kg/injection, schedule: Q01DX009 (ip), vehicle: Klucel (hydroxypropylcellulose) (HPC), higher T/C = longer survival", "value": "6 of 10"},
      {"measurement": "survivor count", "setting": "T/C endpoint: median survival time, dose: 400.0 mg/kg/injection, schedule: Q01DX009 (ip), vehicle: Klucel (hydroxypropylcellulose) (HPC), higher T/C = longer survival", "value": "4 of 10"}
    ]},
    {"smiles": "Nc1ncnc2c1ncn2C1OC(CO)CC1O", "note": "(stereo not given)", "values": [
      {"measurement": "survivor count", "setting": "T/C endpoint: mean tumor weight, dose: 150.0 mg/kg/injection, schedule: Q01DX011 (ip), vehicle: saline, higher T/C = larger tumour", "value": "0 of 6"},
      {"measurement": "survivor count", "setting": "T/C endpoint: mean tumor weight, dose: 300.0 mg/kg/injection, schedule: Q01DX011 (ip), vehicle: saline, higher T/C = larger tumour", "value": "0 of 6"}
    ]},
    {"smiles": "C/C=C(\\C)C(=O)N/N=C\\c1cc(Cl)cc(Cl)c1O", "values": [
      {"measurement": "survivor count", "setting": "T/C endpoint: median survival time, dose: 100.0 mg/kg/injection, schedule: Q01DX009 (ip), vehicle: olive oil, sesame oil, peanut oil, higher T/C = longer survival", "value": "10 of 10"},
      {"measurement": "survivor count", "setting": "T/C endpoint: median survival time, dose: 400.0 mg/kg/injection, schedule: Q01DX009 (ip), vehicle: olive oil, sesame oil, peanut oil, higher T/C = longer survival", "value": "10 of 10"}
    ]},
    {"smiles": "S=c1nc[nH]c2nc[nH]c12", "values": [
      {"measurement": "T/C", "setting": "[1]", "value": "141 % of control"},
      {"measurement": "survivor count", "setting": "[1]", "value": "10 of 10"},
      {"measurement": "survivor count", "setting": "T/C endpoint: median survival time, dose: 15.0 mg/kg/injection, schedule: Q01DX009 (ip), vehicle: saline with Tween-80, higher T/C = longer survival", "value": "10 of 10"},
      {"measurement": "survivor count", "setting": "T/C endpoint: median survival time, dose: 16.0 mg/kg/injection, schedule: Q01DX009 (ip), vehicle: saline, higher T/C = longer survival", "value": "10 of 10"},
      {"measurement": "survivor count", "setting": "T/C endpoint: median survival time, dose: 30.0 mg/kg/injection, schedule: Q01DX009 (ip), vehicle: Klucel (hydroxypropylcellulose) (HPC), higher T/C = longer survival", "value": "10 of 10 and 9 of 9"},
      {"measurement": "survivor count", "setting": "T/C endpoint: median survival time, dose: 30.0 mg/kg/injection, schedule: Q01DX009 (ip), vehicle: saline with Tween-80, higher T/C = longer survival", "value": "10 of 10"},
      {"measurement": "survivor count", "setting": "T/C endpoint: median survival time, dose: 32.0 mg/kg/injection, schedule: Q01DX009 (ip), vehicle: saline, higher T/C = longer survival", "value": "10 of 10"},
      {"measurement": "survivor count", "setting": "T/C endpoint: median survival time, dose: 60.0 mg/kg/injection, schedule: Q01DX009 (ip), vehicle: Klucel (hydroxypropylcellulose) (HPC), higher T/C = longer survival", "value": "9 of 10 and 10 of 10"},
      {"measurement": "survivor count", "setting": "T/C endpoint: median survival time, dose: 60.0 mg/kg/injection, schedule: Q01DX009 (ip), vehicle: saline with Tween-80, higher T/C = longer survival", "value": "10 of 10"},
      {"measurement": "survivor count", "setting": "T/C endpoint: median survival time, dose: 80.0 mg/kg/injection, schedule: Q01DX011 (ip), vehicle: alkali diluted with saline, higher T/C = longer survival", "value": "10 of 10"},
      {"measurement": "survivor count", "setting": "T/C endpoint: median survival time, dose: 120.0 mg/kg/injection, schedule: Q01DX009 (ip), vehicle: Klucel (hydroxypropylcellulose) (HPC), higher T/C = longer survival", "value": "9 of 10 and 10 of 10"},
      {"measurement": "survivor count", "setting": "T/C endpoint: median survival time, dose: 120.0 mg/kg/injection, schedule: Q01DX009 (ip), vehicle: saline with Tween-80, higher T/C = longer survival", "value": "10 of 10"},
      {"measurement": "T/C", "setting": "T/C endpoint: median tumor weight (est.), dose: 10.0 mg/kg/injection, schedule: Q01DX011 (ip), vehicle: alkali diluted with saline, evaluated on day 12, higher T/C = larger tumour", "value": "132 % of control"},
      {"measurement": "survivor count", "setting": "T/C endpoint: median tumor weight (est.), dose: 60.0 mg/kg/injection, schedule: Q01DX009 (ip), vehicle: saline with Tween-80, higher T/C = larger tumour", "value": "4 of 10"}
    ]},
    {"smiles": "OC(CCl)CN1CC[N+]2(CC1)CC[N+]1(CCN(CC(O)CCl)CC1)CC2", "note": "(stereo not given)", "values": [
      {"measurement": "T/C", "setting": "T/C endpoint: median survival time, dose: 160.0 mg/kg/injection, schedule: Q01DX009 (ip), vehicle: saline, higher T/C = longer survival", "value": "131 % of control"},
      {"measurement": "survivor count", "setting": "T/C endpoint: median survival time, dose: 640.0 mg/kg/injection, schedule: Q01DX009 (ip), vehicle: saline, higher T/C = longer survival", "value": "2 of 10"}
    ]},
    {"smiles": "OC(COc1cccc2ccccc12)CN(CCCl)CCCl", "note": "(stereo not given)", "values": [
      {"measurement": "survivor count", "setting": "T/C endpoint: median survival time, dose: 10.0 mg/kg/injection, schedule: Q01DX009 (ip), vehicle: Klucel (hydroxypropylcellulose) (HPC), higher T/C = longer survival", "value": "8 of 10 and 10 of 10"},
      {"measurement": "survivor count", "setting": "T/C endpoint: median survival time, dose: 20.0 mg/kg/injection, schedule: Q01DX009 (ip), vehicle: Klucel (hydroxypropylcellulose) (HPC), higher T/C = longer survival", "value": "2 of 10 and 7 of 10"},
      {"measurement": "survivor count", "setting": "T/C endpoint: median survival time, dose: 40.0 mg/kg/injection, schedule: Q01DX009 (ip), vehicle: Klucel (hydroxypropylcellulose) (HPC), higher T/C = longer survival", "value": "0 of 10 (2×)"}
    ]},
    {"smiles": "O=NN(CCCl)C(=O)NC1CC2CCC1C2", "note": "(stereo not given)", "values": [
      {"measurement": "survivor count", "setting": "T/C endpoint: median survival time, dose: 10.0 mg/kg/injection, schedule: Q01DX001 (ip), vehicle: Klucel (hydroxypropylcellulose) (HPC), higher T/C = longer survival", "value": "10 of 10"},
      {"measurement": "survivor count", "setting": "T/C endpoint: median survival time, dose: 20.0 mg/kg/injection, schedule: Q01DX001 (ip), vehicle: Klucel (hydroxypropylcellulose) (HPC), higher T/C = longer survival", "value": "10 of 10"},
      {"measurement": "T/C", "setting": "T/C endpoint: median survival time, dose: 40.0 mg/kg/injection, schedule: Q01DX001 (ip), vehicle: Klucel (hydroxypropylcellulose) (HPC), higher T/C = longer survival", "value": "126 and 130 % of control"},
      {"measurement": "survivor count", "setting": "T/C endpoint: median survival time, dose: 80.0 mg/kg/injection, schedule: Q01DX001 (ip), vehicle: Klucel (hydroxypropylcellulose) (HPC), higher T/C = longer survival", "value": "10 of 10"},
      {"measurement": "survivor count", "setting": "T/C endpoint: median survival time, dose: 160.0 mg/kg/injection, schedule: Q01DX001 (ip), vehicle: Klucel (hydroxypropylcellulose) (HPC), higher T/C = longer survival", "value": "10 of 10"}
    ]},
    {"smiles": "Nc1nc(SCc2ccccc2)c2ncn(C3CCCC3)c2n1", "values": [
      {"measurement": "survivor count", "setting": "T/C endpoint: mean tumor weight, dose: 900.0 mg/kg/injection, schedule: Q01DX011 (ip), vehicle: other, higher T/C = larger tumour", "value": "2 of 6"}
    ]},
    {"smiles": "O=C1NC2(CCCCC2)C(=O)N1CCN(CCCl)CCCl", "values": [
      {"measurement": "survivor count", "setting": "T/C endpoint: median survival time, dose: 3.12 mg/kg/injection, schedule: Q01DX009 (ip), vehicle: saline, higher T/C = longer survival", "value": "6 of 6"},
      {"measurement": "T/C", "setting": "T/C endpoint: median survival time, dose: 6.0 mg/kg/injection, schedule: Q01DX009 (ip), vehicle: Klucel (hydroxypropylcellulose) (HPC), higher T/C = longer survival", "value": "141 % of control"},
      {"measurement": "survivor count", "setting": "T/C endpoint: median survival time, dose: 6.25 mg/kg/injection, schedule: Q01DX009 (ip), vehicle: saline, higher T/C = longer survival", "value": "6 of 6"},
      {"measurement": "survivor count", "setting": "T/C endpoint: median survival time, dose: 12.0 mg/kg/injection, schedule: Q01DX009 (ip), vehicle: Klucel (hydroxypropylcellulose) (HPC), higher T/C = longer survival", "value": "10 of 10"},
      {"measurement": "survivor count", "setting": "T/C endpoint: median survival time, dose: 12.5 mg/kg/injection, schedule: Q01DX009 (ip), vehicle: saline, higher T/C = longer survival", "value": "6 of 6"},
      {"measurement": "survivor count", "setting": "T/C endpoint: median survival time, dose: 24.0 mg/kg/injection, schedule: Q01DX009 (ip), vehicle: Klucel (hydroxypropylcellulose) (HPC), higher T/C = longer survival", "value": "10 of 10"},
      {"measurement": "survivor count", "setting": "T/C endpoint: median survival time, dose: 24.0 mg/kg/injection, schedule: Q01DX009 (ip), vehicle: saline, higher T/C = longer survival", "value": "7 of 10"},
      {"measurement": "survivor count", "setting": "T/C endpoint: median survival time, dose: 25.0 mg/kg/injection, schedule: Q01DX009 (ip), vehicle: saline, higher T/C = longer survival", "value": "2 of 6 and 6 of 6"}
    ]}
  ]
}
